# Percent effect of library compounds

By UniProt entry, the sequences of proteins in these tests, tags left out.
UniProt P9WFT3, whole entry: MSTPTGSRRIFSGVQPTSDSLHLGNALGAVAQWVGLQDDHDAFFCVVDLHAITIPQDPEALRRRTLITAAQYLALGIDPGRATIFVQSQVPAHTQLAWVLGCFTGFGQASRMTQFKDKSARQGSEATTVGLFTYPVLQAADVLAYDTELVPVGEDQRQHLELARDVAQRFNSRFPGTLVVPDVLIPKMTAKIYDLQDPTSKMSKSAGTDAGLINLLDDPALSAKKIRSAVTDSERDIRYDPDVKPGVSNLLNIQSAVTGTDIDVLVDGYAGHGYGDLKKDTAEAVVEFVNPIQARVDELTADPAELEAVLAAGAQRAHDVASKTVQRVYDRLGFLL
UniProt P9WNZ1, whole entry: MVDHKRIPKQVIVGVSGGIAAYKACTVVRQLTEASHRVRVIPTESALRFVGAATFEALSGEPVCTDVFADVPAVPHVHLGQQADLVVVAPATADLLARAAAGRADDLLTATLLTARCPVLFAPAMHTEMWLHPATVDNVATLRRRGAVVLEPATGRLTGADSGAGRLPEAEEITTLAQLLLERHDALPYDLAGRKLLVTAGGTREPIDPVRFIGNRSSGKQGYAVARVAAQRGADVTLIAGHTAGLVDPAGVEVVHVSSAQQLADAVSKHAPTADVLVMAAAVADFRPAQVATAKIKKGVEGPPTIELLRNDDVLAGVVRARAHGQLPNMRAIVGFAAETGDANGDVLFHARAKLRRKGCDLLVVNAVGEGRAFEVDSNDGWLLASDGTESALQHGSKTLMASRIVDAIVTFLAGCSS

The values are deposited in ChEMBL (CHEMBL3988442, “University of Dundee, Small-Polar-MMV Screening Library” (2021)).

Leishmania in macrophages: 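Cell assay of Leishmania donovani living inside macrophages; the read-out is not stated. Tested at 30 µM. The record gives no direction; compounds that gave an IC50 in retests scored well above the rest, so higher reads as stronger inhibition. About 69,000 compounds were tested under these conditions; 1.5% (about 1,000) showed 50% or more at least once.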
MtTrpRS: 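Tryptophan-tRNA ligase, Mycobacterium tuberculosis (UniProt P9WFT3). Enzyme assay of tryptophanyl-tRNA synthetase; the read-out is not stated. Compounds at 10 µM. Direction is not recorded; retested compounds ran higher, which suggests that high means inhibition. Of about 65,000 compounds tested this way, about 64 (0.098%) reached 50% or more in at least one test.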
Toxoplasma: 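Assay of Toxoplasma gondii numbers, read through their beta-galactosidase reporter with a colour substrate. Concentration: 10 µM. Higher reads as fewer parasites (inferred from which compounds were picked for retests). Of about 67,000 compounds tested this way, about 260 (0.38%) reached 50% or more in at least one test.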
CoaBC: 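Enzyme assay of CoaBC with a phosphate dye (Biomol Green) read at 650 nm. Target: Coenzyme A biosynthesis protein CoaBC, Mycobacterium tuberculosis (UniProt P9WNZ1). Tested at 30 µM. Higher reads as stronger inhibition, judged from the few compounds that gave an IC50. Most strong results did not repeat in a second test. Of about 67,000 compounds tested this way, about 40 (0.06%) reached 50% or more in at least one test.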

The filed quantity is “Percent Effect” (%). The record does not define 0% and 100%; most values in the screen are far below 50% and negative numbers occur (in some assays of this library far below -100). Compounds were drawn at random from those tested, without regard to their results. Two or more numbers in one place are separate tests of the same structure; such repeats can differ widely.

* CC(C)Cc1noc(C2CCCCN2C(=O)CCc2cnn(C)c2)n1 (stereo not shown) | Leishmania in macrophages: 31.7%; MtTrpRS: 3.23%; Toxoplasma: 8.039%; CoaBC: 19.77%
* CS(=O)(=O)NC(=O)CCc1cccc(OC2CCCC2)c1 | Leishmania in macrophages: 12.71%; MtTrpRS: -3.916%; Toxoplasma: -14.76%; CoaBC: 10.76%
* Cc1nc(C)n(CC2CCCN2Cc2nc(N)c3ccccc3n2)n1 (stereo not shown) | Leishmania in macrophages: 26.93%; MtTrpRS: -5.49%; Toxoplasma: 0.3501%; CoaBC: 8.735%
* Cc1csc(N2CCN(CC(=O)N3CCNC3=O)CC2C)n1 (stereo not shown) | Leishmania in macrophages: -37.72%; MtTrpRS: 24.09%; Toxoplasma: 26.92%; CoaBC: 6.351%
* O=C1C[C@H]2CC[C@@H](CN1)N2C(=O)Cc1ccsc1 | MtTrpRS: -6.578%; CoaBC: 2.963%
* O=C(NCCC(O)c1ccco1)c1ccccc1Br (stereo not shown) | Leishmania in macrophages: 7.085% and 8.175%; MtTrpRS: -6.763%; Toxoplasma: -4.891%; CoaBC: -0.2114%
* CCC(=O)NCC(=O)Nc1ncc(I)cc1C | Leishmania in macrophages: -8.704%; MtTrpRS: 0.2865%; Toxoplasma: -6.132%; CoaBC: 10.76%
* CCOC(=O)c1nnc2ccccc2c1N1CCN(CC)CC1 | Leishmania in macrophages: 18.05%; MtTrpRS: -3.006%; Toxoplasma: -0.5461%; CoaBC: 2.558%
* [H][C@@]12CCN(Cc3cnn(C)c3)C[C@@]1([H])O[C@@H](c1nc(C3CC3)cs1)C2 | Leishmania in macrophages: 38.25%; Toxoplasma: -11.81%
* CCn1c(N)nc2cc(C(=O)NCc3cccc(C)c3C)cnc21 | Leishmania in macrophages: -63.99%; MtTrpRS: -4.895%; Toxoplasma: 24.82%; CoaBC: -2.911%
* Cc1nc(C2CCNCC2)cc(N(C)CCc2cn[nH]c2)n1 | Leishmania in macrophages: 2.569%; MtTrpRS: -1.876%; Toxoplasma: -8.371%; CoaBC: 1.873%
* CN1CCC(C(=O)NCc2nncn2-c2ccccc2)CC1=O (stereo not shown) | Leishmania in macrophages: -5.946%; MtTrpRS: -0.5477%; Toxoplasma: 1.551%; CoaBC: 2.017%
* COC(=O)c1ccc(S(=O)(=O)NC2CNC(=O)C2)cc1 (stereo not shown) | Leishmania in macrophages: -24.45%; MtTrpRS: 0.7337%; Toxoplasma: 11.18%; CoaBC: 3.008%
* COc1c(C2CCCN2C(=O)c2cscn2)c(C)nn1C (stereo not shown) | Leishmania in macrophages: -13.36%; MtTrpRS: 7.595%; Toxoplasma: 8.563%; CoaBC: 1.935%
* O=C(Nc1cc(C(F)(F)F)c[nH]c1=O)c1ccco1 | Leishmania in macrophages: 14.28%; MtTrpRS: -2.437%; Toxoplasma: 1.318%; CoaBC: 1.169%
* CCN(CC)C(=O)c1cc(-c2cccc(Cl)c2)no1 | Leishmania in macrophages: -23.5%; MtTrpRS: -5.623%; Toxoplasma: 6.195%; CoaBC: 0%
* Fc1ccc(C2CCCCN2Cc2cc(-c3ccccn3)no2)cc1 (stereo not shown) | Leishmania in macrophages: 22.48%; MtTrpRS: 3.537%; Toxoplasma: 18.3%; CoaBC: 4.151%
* Cc1occc1C(=O)N1CCCC2(CCN(c3ccccc3)C2=O)C1 (stereo not shown) | Leishmania in macrophages: -16.08%; MtTrpRS: 4.578%; Toxoplasma: -8.981%; CoaBC: -0.4894%
* O=C(O)C(F)(F)F.[H][C@@]12CN(CC3CC3)C[C@]1([H])[C@H](OC)CCN2C(=O)c1ccsc1 | Leishmania in macrophages: -13.93%; Toxoplasma: -24.22%
* CNC(=O)c1cc2c(nc1N(C)C)CCN(S(=O)(=O)CC(C)C)CC2 | MtTrpRS: -2.095%; CoaBC: -1.141%
* Cc1nccnc1N1CCC(Cc2ccccc2Cl)(C(=O)O)CC1 | Leishmania in macrophages: 36.97%; MtTrpRS: 1.847%; Toxoplasma: 13.39%; CoaBC: 7.296%
* Cc1n[nH]c(C)c1CCC(=O)N1CCC(O)(CN2CCOCC2)C1 (stereo not shown) | Leishmania in macrophages: -12.29%; MtTrpRS: 13.41%; Toxoplasma: 13.36%; CoaBC: 0%
* CCn1c(C2CCCN(Cc3ccnc4ccccc34)C2)nn(C)c1=O (stereo not shown) | Leishmania in macrophages: -10.48%; MtTrpRS: 3.078%; Toxoplasma: 3.536%; CoaBC: 6.009%
* CCOC1COC2(CCN(Cc3ccc4c(c3)OCO4)CC2)C1 (stereo not shown) | Leishmania in macrophages: 32.07%; MtTrpRS: 5.573%; Toxoplasma: 4.329%; CoaBC: 2.902%
* O=C(O)C(F)(F)F.O=C1COC2(CCN(Cc3ccsc3)CC2)CN1 | Leishmania in macrophages: 38.39%; Toxoplasma: -3.356%
* COc1ccc(OC)c(CN(C(=O)c2ccc(C)[nH]c2=O)C2CC2)c1 | Leishmania in macrophages: 16.01%; MtTrpRS: -5.204%; Toxoplasma: -6.697%; CoaBC: -7.273%
* Cc1ccc(C(=O)N2CCO[C@H]3[C@@H](OCc4ccccn4)CC[C@@H]32)o1 | MtTrpRS: 2.315%; CoaBC: 2.915%
* Cc1noc(C2CCN(C(=O)CCNc3ncccn3)CC2)n1 | Leishmania in macrophages: 8.884%; MtTrpRS: -0.6681%; Toxoplasma: -24.44%; CoaBC: 1.813%
* O=C(O)C(F)(F)F.[H][C@@]12CCN(CC3CCOC3)[C@@]1([H])CC(=O)N2Cc1csc(C)n1 (stereo partly shown) | Leishmania in macrophages: 7.65%; Toxoplasma: 14.27%
* CCO[C@@H]1C[C@H]2CN(S(=O)(=O)c3cccs3)CCN2C1 | MtTrpRS: 1.262%; CoaBC: 9.572%

The first 2 entries again:

SMILES,Leishmania in macrophages,MtTrpRS,Toxoplasma,CoaBC
CC(C)Cc1noc(C2CCCCN2C(=O)CCc2cnn(C)c2)n1 (stereo not shown),31.7,3.23,8.039,19.77
CS(=O)(=O)NC(=O)CCc1cccc(OC2CCCC2)c1,12.71,-3.916,-14.76,10.76